# The list shows a part of the results.
# Chains of the proteins cited; added tags and fusions are not shown. Lines headed by an entry give the natural chain unless they say otherwise; changes in a name come on top.
# UniProt P54687: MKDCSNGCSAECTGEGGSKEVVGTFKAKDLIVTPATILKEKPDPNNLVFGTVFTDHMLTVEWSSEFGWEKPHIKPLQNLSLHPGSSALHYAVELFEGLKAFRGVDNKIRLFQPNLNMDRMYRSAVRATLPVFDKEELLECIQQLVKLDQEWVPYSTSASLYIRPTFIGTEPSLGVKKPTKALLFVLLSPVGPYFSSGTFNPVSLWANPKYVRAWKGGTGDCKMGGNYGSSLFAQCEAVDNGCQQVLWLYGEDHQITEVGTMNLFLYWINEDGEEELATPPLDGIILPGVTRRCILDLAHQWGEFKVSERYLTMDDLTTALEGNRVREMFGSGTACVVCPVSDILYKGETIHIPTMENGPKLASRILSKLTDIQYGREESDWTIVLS
# UniProt Q9UL15: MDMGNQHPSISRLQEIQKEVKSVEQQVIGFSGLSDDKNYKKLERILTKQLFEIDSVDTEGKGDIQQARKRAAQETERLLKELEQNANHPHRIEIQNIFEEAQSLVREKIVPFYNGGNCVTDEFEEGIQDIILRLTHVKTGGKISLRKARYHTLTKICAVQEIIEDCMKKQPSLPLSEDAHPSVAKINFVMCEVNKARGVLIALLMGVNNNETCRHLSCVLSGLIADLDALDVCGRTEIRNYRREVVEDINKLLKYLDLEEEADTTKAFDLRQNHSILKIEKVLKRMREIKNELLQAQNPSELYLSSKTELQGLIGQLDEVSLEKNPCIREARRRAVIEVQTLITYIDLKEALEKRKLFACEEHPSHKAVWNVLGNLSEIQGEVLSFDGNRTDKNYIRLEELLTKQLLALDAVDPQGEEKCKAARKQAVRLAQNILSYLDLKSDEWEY
# UniProt Q13535: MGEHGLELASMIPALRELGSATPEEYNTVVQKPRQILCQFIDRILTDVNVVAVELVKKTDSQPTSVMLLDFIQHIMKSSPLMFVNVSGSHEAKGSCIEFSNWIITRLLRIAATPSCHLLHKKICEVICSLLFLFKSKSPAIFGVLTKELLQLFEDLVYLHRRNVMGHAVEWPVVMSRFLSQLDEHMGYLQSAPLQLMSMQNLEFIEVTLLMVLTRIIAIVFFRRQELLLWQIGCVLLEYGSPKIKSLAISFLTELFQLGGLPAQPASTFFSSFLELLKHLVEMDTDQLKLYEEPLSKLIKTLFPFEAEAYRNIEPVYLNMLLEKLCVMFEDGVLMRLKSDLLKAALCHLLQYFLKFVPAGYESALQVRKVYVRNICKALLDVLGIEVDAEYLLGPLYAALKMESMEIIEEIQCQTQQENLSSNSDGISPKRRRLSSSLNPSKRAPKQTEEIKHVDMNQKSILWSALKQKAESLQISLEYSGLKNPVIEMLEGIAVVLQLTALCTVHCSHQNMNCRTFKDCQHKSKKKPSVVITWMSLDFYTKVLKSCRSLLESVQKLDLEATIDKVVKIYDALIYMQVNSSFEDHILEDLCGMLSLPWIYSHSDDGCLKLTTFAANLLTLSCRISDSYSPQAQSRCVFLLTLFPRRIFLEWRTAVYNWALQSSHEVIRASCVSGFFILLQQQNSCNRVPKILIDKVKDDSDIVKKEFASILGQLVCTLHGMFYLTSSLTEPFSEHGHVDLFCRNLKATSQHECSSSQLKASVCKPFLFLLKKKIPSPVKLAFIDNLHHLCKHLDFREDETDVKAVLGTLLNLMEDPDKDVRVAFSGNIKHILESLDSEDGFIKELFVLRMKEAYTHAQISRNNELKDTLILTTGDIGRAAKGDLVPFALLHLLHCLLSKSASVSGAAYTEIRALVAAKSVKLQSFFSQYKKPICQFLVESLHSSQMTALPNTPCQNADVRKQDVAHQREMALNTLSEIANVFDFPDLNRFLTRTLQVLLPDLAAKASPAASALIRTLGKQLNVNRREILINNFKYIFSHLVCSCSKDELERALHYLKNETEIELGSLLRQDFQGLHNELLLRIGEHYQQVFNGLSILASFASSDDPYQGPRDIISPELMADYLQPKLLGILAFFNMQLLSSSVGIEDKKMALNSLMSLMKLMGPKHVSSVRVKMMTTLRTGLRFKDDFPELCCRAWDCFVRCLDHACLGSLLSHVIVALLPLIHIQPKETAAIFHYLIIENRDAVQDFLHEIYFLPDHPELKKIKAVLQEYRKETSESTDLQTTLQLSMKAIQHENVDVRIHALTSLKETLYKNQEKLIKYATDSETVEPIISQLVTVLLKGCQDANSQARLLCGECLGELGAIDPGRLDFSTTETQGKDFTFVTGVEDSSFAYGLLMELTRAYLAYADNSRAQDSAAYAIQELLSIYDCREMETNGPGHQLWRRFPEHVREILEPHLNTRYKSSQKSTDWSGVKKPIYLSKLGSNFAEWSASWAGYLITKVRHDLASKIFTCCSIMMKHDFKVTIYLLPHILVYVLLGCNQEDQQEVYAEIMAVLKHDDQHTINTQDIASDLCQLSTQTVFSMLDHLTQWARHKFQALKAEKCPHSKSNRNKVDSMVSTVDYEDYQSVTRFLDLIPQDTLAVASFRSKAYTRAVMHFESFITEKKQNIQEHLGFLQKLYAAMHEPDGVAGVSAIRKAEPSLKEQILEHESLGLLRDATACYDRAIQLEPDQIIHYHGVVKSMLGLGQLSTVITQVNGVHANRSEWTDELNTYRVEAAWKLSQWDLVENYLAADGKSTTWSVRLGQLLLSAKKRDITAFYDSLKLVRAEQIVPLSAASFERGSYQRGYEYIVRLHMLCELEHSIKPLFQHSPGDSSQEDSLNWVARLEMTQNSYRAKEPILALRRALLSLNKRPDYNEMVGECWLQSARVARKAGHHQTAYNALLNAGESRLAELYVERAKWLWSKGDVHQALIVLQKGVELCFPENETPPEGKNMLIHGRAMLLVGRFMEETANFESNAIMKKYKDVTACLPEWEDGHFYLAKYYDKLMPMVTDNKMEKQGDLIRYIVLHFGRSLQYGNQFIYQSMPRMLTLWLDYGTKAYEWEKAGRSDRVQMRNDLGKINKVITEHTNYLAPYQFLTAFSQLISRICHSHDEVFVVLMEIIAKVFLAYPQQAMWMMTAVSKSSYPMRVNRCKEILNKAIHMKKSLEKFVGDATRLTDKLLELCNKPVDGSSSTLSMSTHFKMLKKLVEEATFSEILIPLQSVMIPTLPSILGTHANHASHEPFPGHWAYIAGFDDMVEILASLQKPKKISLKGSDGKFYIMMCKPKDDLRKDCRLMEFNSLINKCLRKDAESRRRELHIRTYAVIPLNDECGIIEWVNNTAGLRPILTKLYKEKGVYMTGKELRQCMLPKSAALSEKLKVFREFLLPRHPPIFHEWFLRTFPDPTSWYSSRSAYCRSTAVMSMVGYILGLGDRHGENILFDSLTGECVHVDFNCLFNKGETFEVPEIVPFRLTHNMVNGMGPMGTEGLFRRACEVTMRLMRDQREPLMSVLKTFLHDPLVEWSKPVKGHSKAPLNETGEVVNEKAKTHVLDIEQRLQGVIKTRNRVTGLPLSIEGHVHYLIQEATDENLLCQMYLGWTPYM
# UniProt Q9NSY1, whole entry, looked up: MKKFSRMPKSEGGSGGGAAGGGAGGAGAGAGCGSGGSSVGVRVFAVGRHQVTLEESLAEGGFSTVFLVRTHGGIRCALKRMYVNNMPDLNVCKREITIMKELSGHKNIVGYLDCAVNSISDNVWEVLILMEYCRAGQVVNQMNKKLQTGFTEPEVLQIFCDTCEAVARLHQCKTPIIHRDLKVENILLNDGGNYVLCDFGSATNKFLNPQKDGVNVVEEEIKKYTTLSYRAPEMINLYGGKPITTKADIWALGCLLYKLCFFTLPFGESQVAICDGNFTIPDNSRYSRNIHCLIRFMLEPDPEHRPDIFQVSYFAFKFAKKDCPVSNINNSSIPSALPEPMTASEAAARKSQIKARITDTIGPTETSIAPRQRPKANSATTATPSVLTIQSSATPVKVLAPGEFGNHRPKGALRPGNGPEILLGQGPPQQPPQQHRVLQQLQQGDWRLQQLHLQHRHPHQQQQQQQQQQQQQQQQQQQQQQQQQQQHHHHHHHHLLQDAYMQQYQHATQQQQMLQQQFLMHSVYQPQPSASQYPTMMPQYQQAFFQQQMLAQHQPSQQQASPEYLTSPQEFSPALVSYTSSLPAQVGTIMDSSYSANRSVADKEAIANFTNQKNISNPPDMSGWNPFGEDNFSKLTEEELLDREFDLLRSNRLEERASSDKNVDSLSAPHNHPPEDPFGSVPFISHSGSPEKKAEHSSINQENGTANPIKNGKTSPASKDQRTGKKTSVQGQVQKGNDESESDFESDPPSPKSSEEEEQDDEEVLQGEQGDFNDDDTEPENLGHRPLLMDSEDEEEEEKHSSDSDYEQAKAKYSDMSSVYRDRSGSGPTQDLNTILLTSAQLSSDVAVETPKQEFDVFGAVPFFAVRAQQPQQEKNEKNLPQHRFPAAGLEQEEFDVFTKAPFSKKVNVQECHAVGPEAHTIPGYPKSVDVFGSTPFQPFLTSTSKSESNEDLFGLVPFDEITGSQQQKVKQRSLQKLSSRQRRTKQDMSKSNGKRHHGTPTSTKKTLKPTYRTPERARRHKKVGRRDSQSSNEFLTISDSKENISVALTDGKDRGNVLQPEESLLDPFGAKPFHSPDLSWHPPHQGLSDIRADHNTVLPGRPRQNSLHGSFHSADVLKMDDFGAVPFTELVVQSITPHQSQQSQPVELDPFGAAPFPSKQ
# UniProt Q9UHQ4: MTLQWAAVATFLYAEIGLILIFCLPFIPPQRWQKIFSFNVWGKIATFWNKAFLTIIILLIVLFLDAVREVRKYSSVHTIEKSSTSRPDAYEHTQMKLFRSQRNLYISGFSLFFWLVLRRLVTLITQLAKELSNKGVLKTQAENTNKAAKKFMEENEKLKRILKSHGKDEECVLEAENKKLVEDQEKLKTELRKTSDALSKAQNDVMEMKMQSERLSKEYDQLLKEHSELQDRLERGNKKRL
# UniProt Q13867: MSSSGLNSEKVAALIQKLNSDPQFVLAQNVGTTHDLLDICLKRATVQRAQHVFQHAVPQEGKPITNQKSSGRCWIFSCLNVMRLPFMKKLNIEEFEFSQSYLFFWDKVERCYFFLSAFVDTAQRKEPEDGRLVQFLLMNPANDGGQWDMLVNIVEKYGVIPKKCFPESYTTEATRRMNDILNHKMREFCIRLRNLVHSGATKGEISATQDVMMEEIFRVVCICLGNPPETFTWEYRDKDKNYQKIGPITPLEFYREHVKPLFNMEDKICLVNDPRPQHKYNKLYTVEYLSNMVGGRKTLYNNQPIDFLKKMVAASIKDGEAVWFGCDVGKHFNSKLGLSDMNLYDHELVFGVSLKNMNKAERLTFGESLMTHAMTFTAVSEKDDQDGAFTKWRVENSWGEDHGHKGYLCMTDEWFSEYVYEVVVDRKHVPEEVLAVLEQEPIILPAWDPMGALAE
# UniProt Q9UBB4: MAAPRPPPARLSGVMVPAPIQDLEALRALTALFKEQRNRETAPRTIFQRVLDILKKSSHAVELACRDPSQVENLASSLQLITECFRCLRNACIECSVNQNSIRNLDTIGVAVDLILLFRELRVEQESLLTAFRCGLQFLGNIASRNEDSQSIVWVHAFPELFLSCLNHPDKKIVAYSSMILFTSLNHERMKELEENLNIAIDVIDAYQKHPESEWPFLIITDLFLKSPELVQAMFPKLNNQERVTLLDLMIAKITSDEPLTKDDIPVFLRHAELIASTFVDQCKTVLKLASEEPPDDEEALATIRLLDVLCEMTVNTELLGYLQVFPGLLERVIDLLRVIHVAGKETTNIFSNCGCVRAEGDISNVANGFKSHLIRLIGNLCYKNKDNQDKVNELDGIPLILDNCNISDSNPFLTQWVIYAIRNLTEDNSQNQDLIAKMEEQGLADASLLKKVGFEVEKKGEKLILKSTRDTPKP
# UniProt Q14137: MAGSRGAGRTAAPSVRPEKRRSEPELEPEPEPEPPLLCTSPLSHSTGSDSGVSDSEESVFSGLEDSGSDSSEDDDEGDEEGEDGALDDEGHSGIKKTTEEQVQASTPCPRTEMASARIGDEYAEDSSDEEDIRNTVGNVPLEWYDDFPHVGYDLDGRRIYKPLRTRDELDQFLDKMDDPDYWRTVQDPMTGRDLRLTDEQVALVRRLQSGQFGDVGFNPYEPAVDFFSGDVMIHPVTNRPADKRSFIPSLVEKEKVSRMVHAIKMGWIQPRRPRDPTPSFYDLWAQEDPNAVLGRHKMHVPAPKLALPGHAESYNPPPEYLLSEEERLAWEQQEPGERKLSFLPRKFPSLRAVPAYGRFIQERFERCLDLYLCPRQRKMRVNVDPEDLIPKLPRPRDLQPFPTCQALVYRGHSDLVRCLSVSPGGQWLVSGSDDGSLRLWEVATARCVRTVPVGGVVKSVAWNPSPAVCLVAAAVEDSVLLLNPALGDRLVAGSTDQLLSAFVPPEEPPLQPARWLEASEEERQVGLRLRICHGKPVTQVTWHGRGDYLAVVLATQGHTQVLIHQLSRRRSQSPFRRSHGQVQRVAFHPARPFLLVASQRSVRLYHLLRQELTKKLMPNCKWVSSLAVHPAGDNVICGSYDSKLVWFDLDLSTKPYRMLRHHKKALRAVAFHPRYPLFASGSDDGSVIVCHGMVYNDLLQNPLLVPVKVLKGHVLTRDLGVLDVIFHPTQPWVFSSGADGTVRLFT
# Compound: CC1Cc2ccccc2N1C(=O)C1CCCN(C1)C(=O)CCl (mixture of isomers) [TRIM25 ligand 11 (diastereomer mixture)]
# Experiment: probe-labelled cysteine peptide fold change vs DMSO (competition) (log2 fold change); higher = less target engagement (more negative = stronger competition)
# Details: THP-1, incubation time: 4 h
# 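Note: competitive chemoproteomic profiling in live THP-1 cells with an iodoacetamide desthiobiotin (IA-DTB) probe, comparing probe-labelled peptide intensities in compound-treated cells against DMSO-treated controls.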
Target,probe-labelled cysteine peptide fold change (10 µM),probe-labelled cysteine peptide fold change (50 µM)
BAZ1A_Q9NRL2_970_SSNAYDPSQMCAEK (UniProt Q9NRL2),0.0359,-0.213
BAZ2A_Q9UIF9_1660_SAAQVCLCLGQLER (UniProt Q9UIF9),0.0716,-0.303
BIRC6_Q9NR09_3673_RHHVPQQCNK (UniProt Q9NR09),-0.0858,-0.242
ATXN2_Q99700_556_VVNGGVPWPSPCPSPSSRPPSR (UniProt Q99700),-0.136,-0.0514
BCAT1_P54687_221_GGTGDCK (UniProt P54687),-0.0431,0.0305
BPTF_Q12830_1357_LASADDIGTLICK (UniProt Q12830),0.0298,-0.193
BARGIN_Q6ZT62_631_CGMTTVLTLTGVSR (UniProt Q6ZT62),0.013,0.0424
BAG5_Q9UL15_360_LFACEEHPSHK (UniProt Q9UL15),0.146,-0.201
BAX_Q07812_62_KLSECLK (UniProt Q07812),-0.00084,0.2
BDH2_Q9BUT1_145_CVYSTTK (UniProt Q9BUT1),-0.167,-0.196
BOD1L1_Q8NFC6_2164_CAESLQPVAAAVEER (UniProt Q8NFC6),0.0625,-0.315
BAZ1A_Q9NRL2_547_SLDLDSCTLSEILR (UniProt Q9NRL2),-0.0105,0.0488
BAZ1A_Q9NRL2_764_QEQINCVTREPLTADEEEALKQEHQR (UniProt Q9NRL2),-0.357,-0.181
BAZ1A_Q9NRL2_621_ILHALCGK (UniProt Q9NRL2),-0.129,0.0867
AVL9_Q8NBF6_409_GYLCLPYMALQQHHLLSDVTVR (UniProt Q8NBF6),0.0355,0.118
ATR_Q13535_1343_GCQDANSQAR (UniProt Q13535),0.132,0.0788
BAG1_Q99933_272_DLQAEALCK (UniProt Q99933),-0.00206,0.0986
BAZ2A_Q9UIF9_583_WQGETWYYGPCGK (UniProt Q9UIF9),0.0709,-0.0742
B4GALT7_Q9UBV7_75_ACPPEPPPEHWEEDASWGPHR (UniProt Q9UBV7),0.0722,-0.0496
BCOR_Q6W2J9_1311_QAQPSCAPASRPPAK (UniProt Q6W2J9),-0.00663,-0.0365
BAG3_O95817_151_QCGQVAAAAAAQPPASHGPER (UniProt O95817),-0.0373,-0.11
BMP2K_Q9NSY1_160_LQTGFTEPEVLQIFCDTCEAVAR (UniProt Q9NSY1),-0.352,-0.0816
AZU1_P20160_149_CQVAGWGSQR (UniProt P20160),0.0126,-0.0102

Target,probe-labelled cysteine peptide fold change (10 µM),probe-labelled cysteine peptide fold change (50 µM)
BCKDHB_P21953_361_VCGYDTPFPHIFEPFYIPDK (UniProt P21953),0.0222,-0.0397
BIRC6_Q9NR09_739_FAEEENLCIDSITPCADGIHLLVGLR (UniProt Q9NR09),-0.498,-0.0824
BCAP29_Q9UHQ4_171_DEECVLEAENK (UniProt Q9UHQ4),0.371,0.156
BAZ2A_Q9UIF9_1802_NHHSDLTFCEIILMEMESHDAAWPFLEPVNPR (UniProt Q9UIF9),0.0252,-0.15
BLMH_Q13867_326_DGEAVWFGCDVGK (UniProt Q13867),-0.0858,-0.0492
BIRC6_Q9NR09_1319_CAMLQFSEFHEK (UniProt Q9NR09),-0.0118,-0.161
ATXN2L_Q8WWM7_135_MLHFLTAVVGSTCDVK (UniProt Q8WWM7),-0.0311,-0.00568
BCLAF1_Q9NYF8_688_CDSADLR (UniProt Q9NYF8),-0.0386,-0.103
BLOC1S6_Q9UL45_95_ECHSMLDINALFAEAK (UniProt Q9UL45),0.0396,0.0528
BAZ2A_Q9UIF9_917_AALHDPGFPSYCQSLK (UniProt Q9UIF9),0.114,0.0126
BAG6_P46379_345+349_CNLACTPPR (UniProt P46379),-0.182,-0.296
ATXN10_Q9UBB4_92_NACIECSVNQNSIR (UniProt Q9UBB4),0.00922,0.199
BIRC6_Q9NR09_1183_LCPFLEDHKEDILCGPVWLASGLDLSGHAGMLTLTSPK (UniProt Q9NR09),0.0745,0.00914
BAZ1B_Q9UIG0_1213_AFHLFCLR (UniProt Q9UIG0),-0.0578,-0.0252
BAZ2A_Q9UIF9_888_DVPSLGVLQEGLLCQGDSLGEVQDLLVR (UniProt Q9UIF9),-0.142,0.0943
BAZ1A_Q9NRL2_404_PREDMECDDLK (UniProt Q9NRL2),-0.115,-0.16
BAZ2B_Q9UIF8_1960_GCHTYCHRPK (UniProt Q9UIF8),0.0324,-0.0424
BOD1L1_Q8NFC6_2599_CEQDLTIK (UniProt Q8NFC6),-0.198,-0.265
BCR_P11274_886_SFSLTSVELQMLTNSCVK (UniProt P11274),0.0219,0.037
BAZ1B_Q9UIG0_1175_MHVLLGMLDACIK (UniProt Q9UIG0),-0.144,-0.227
AVEN_Q9NQS1_169_EWDSEASCPK (UniProt Q9NQS1),-0.188,-0.472
BOP1_Q14137_404_DLQPFPTCQALVYR (UniProt Q14137),-0.171,-0.237
B4GALT1_P15291_262_CFSQPR (UniProt P15291),0.284,0.173

# Given tab-delimited: part of the list above.
Target	probe-labelled cysteine peptide fold change (10 µM)	probe-labelled cysteine peptide fold change (50 µM)
BAZ1A_Q9NRL2_404_PREDMECDDLK (UniProt Q9NRL2)	-0.115	-0.16
BAZ2B_Q9UIF8_1960_GCHTYCHRPK (UniProt Q9UIF8)	0.0324	-0.0424
BOD1L1_Q8NFC6_2599_CEQDLTIK (UniProt Q8NFC6)	-0.198	-0.265

# Next entries follow:

Target,probe-labelled cysteine peptide fold change (10 µM),probe-labelled cysteine peptide fold change (50 µM)
ATXN10_Q9UBB4_65_SSHAVELACR (UniProt Q9UBB4),0.166,0.0371
BIRC6_Q9NR09_4183_KHAQCLLR (UniProt Q9NR09),-0.0367,-0.134
ATXN10_Q9UBB4_382_LIGNLCYK (UniProt Q9UBB4),-0.0223,0.00768
BAZ2A_Q9UIF9_828_KPTEDMCLTDHQPLPDFSR (UniProt Q9UIF9),0.113,-0.145
BAZ2A_Q9UIF9_1037_SEVEMEGPEECLGR (UniProt Q9UIF9),-0.337,-0.201
BAG5_Q9UL15_166_ICAVQEIIEDCMK (UniProt Q9UL15),0.124,0.182
BIRC6_Q9NR09_381_GEHTQNVPLSVTLATSPAQFPCTDGTDR (UniProt Q9NR09),0.0945,-0.0337
BAIAP2_Q9UQB8_195_FCFLVEK (UniProt Q9UQB8),-0.0569,-0.212
BOP1_Q14137_373_CLDLYLCPR (UniProt Q14137),-0.0618,-0.109
ATXN1L_P0C7T5_568_TTQLFSLPCHR (UniProt P0C7T5),0.099,-0.087
BAZ1B_Q9UIG0_1096_DFGECVIALQASVIK (UniProt Q9UIG0),0.121,0.25
B4GAT1_O43505_146_EEAQLATVLAYALSSHCPDMR (UniProt O43505+B4GAT1),-0.0228,-0.0192
ATR_Q13535_1430_AQDSAAYAIQELLSIYDCR (UniProt Q13535),0.122,-0.141
BLM_P54132_120_EVVCTTQNTPTVK (UniProt P54132),0.0344,-0.13
BIRC6_Q9NR09_543_DLEELGANPCLTNSK (UniProt Q9NR09),-0.178,-0.271
BMP2K_Q9NSY1_292_NIHCLIR (UniProt Q9NSY1),0.0146,0.0903
BACH1_O14867_557_LTPEQLDCIHDIR (UniProt O14867),-0.0606,-0.266
BOD1L1_Q8NFC6_1947_DTDICSSAK (UniProt Q8NFC6),-0.013,-0.235
BLMH_Q13867_40_LNSDPQFVLAQNVGTTHDLLDICLK (UniProt Q13867),0.0671,0.0882
AURKB_Q96GD4_191_TATIMEELADALMYCHGK (UniProt Q96GD4),-0.0605,-0.0376
BMI1_P35226_166_CPAAMTVMHLR (UniProt P35226),-0.078,-0.0532

# From the supplement of paper PMC12067093, “Discovery and optimisation of a covalent ligand for TRIM25 and its application to targeted protein ubiquitination” (Chemical Science, 2025)
